Results as given in US8008071B2 (University of South Florida, priority 1999, dated 2011).

Tested on: PKCβII mRNA
Test: RT-PCR of PKCβII mRNA in synchronized A10 cells
Type: cell-based, rat
Settings: 30 minutes pre-incubation, then 25 mM glucose
Experimental: Reverse Transcriptase-Polymerase Chain Reaction. […] The upstream sense primer corresponded to the C4 kinase domain common to both PKCβI and PKCβII (5′ […] 3′) [SEQ ID NO:4] and the downstream antisense primer was specific for PKCβI (5′ […] 3′) [SEQ ID NO:5] (Chalfant et al., 1995, pp.13326-13332). These primers detect inclusion of the PKCβII exon in the mature mRNA as well as PKCβI mRNA. Sense and antisense primers for β-actin (#5402-3) were obtained from Clonetech. PCR was performed using ampliTaq Gold DNA polymerase from PERKIN ELMER (#N808-0240) on 10% of the reverse transcriptase reaction product. Following 35 cycles of amplification in a BIOMETRA Trioblock thermocycler (PKCβI and -βII: 95° C., 30 sec; 64° C., 2 min for 35 cycles; and for β-actin: 94° C., 1 min; 58° C., 1 min; and 72° C., 3 min for 35 cycles), 25% of the PCR reaction was resolved on a 1.2% agarose gel. Bands were observed under UV light and photographed.
Thus, the PKCβII transcript contains the PKCβI exon with the poly A tail and a common 3′ untranslated region (FIG. 25). Inclusion of the alternatively spliced exon encodes a stop codon such that the PKCβI exon facilitates poly-adenylation but the exon is not translated, thereby generating PKCβII protein. […] Although, this assay is semi-quantitative, the ration of PKCβII to PKCβI mRNA was about 2 to 1.

SMILES: CO[C@@H]1[C@H](N(C)C(=O)c2ccccc2)C[C@H]2O[C@]1(C)n1c3ccccc3c3c4c(c5c6ccccc6n2c5c31)C(=O)NC4 [CG 41251]
- effect of inhibitor on glucose-induced destabilization of PKCβII mRNA: blocked
